No constants are given. Whether binding was seen depends on the method and setting. For part of these data: In cells and extracts the contact can be indirect. Some binding calls cover weakened binding; strength is not graded here.
Legend:
[1] = target: LRRK2 COR domain (LexA-BD bait) (human) (UniProt Q5S007); assay: two-hybrid; yeast L40, LexA-BD baits and GAL4-AD preys; selection without Leu, Trp, His with 0.5 mM 3-amino-1,2,4-triazole, 30 °C 3-6 days; semiquantitative LacZ freeze-fracture assays
[2] = target: LRRK2 Roc domain (LexA-BD bait) (human) (UniProt Q5S007); assay: as above
[3] = target: full-length FLAG-tagged TUBB4 (human) (UniProt P04350); assay: co-IP; HEK293 cells transfected with FLAG-β-tubulin and myc-LRRK2 constructs; lysate on anti-FLAG M2 affinity gel overnight at 4 °C, elution with 3xFLAG peptide, anti-myc blot
[4] = target: full-length FLAG-tagged TUBB (human) (UniProt P07437); assay: as above

The chains behind the UniProt entries cited, without tags or fusion partners. Where a name states a change or a piece, a line headed by the entry shows the natural chain unless it says otherwise. Residues count along the entry.
UniProt Q5S007: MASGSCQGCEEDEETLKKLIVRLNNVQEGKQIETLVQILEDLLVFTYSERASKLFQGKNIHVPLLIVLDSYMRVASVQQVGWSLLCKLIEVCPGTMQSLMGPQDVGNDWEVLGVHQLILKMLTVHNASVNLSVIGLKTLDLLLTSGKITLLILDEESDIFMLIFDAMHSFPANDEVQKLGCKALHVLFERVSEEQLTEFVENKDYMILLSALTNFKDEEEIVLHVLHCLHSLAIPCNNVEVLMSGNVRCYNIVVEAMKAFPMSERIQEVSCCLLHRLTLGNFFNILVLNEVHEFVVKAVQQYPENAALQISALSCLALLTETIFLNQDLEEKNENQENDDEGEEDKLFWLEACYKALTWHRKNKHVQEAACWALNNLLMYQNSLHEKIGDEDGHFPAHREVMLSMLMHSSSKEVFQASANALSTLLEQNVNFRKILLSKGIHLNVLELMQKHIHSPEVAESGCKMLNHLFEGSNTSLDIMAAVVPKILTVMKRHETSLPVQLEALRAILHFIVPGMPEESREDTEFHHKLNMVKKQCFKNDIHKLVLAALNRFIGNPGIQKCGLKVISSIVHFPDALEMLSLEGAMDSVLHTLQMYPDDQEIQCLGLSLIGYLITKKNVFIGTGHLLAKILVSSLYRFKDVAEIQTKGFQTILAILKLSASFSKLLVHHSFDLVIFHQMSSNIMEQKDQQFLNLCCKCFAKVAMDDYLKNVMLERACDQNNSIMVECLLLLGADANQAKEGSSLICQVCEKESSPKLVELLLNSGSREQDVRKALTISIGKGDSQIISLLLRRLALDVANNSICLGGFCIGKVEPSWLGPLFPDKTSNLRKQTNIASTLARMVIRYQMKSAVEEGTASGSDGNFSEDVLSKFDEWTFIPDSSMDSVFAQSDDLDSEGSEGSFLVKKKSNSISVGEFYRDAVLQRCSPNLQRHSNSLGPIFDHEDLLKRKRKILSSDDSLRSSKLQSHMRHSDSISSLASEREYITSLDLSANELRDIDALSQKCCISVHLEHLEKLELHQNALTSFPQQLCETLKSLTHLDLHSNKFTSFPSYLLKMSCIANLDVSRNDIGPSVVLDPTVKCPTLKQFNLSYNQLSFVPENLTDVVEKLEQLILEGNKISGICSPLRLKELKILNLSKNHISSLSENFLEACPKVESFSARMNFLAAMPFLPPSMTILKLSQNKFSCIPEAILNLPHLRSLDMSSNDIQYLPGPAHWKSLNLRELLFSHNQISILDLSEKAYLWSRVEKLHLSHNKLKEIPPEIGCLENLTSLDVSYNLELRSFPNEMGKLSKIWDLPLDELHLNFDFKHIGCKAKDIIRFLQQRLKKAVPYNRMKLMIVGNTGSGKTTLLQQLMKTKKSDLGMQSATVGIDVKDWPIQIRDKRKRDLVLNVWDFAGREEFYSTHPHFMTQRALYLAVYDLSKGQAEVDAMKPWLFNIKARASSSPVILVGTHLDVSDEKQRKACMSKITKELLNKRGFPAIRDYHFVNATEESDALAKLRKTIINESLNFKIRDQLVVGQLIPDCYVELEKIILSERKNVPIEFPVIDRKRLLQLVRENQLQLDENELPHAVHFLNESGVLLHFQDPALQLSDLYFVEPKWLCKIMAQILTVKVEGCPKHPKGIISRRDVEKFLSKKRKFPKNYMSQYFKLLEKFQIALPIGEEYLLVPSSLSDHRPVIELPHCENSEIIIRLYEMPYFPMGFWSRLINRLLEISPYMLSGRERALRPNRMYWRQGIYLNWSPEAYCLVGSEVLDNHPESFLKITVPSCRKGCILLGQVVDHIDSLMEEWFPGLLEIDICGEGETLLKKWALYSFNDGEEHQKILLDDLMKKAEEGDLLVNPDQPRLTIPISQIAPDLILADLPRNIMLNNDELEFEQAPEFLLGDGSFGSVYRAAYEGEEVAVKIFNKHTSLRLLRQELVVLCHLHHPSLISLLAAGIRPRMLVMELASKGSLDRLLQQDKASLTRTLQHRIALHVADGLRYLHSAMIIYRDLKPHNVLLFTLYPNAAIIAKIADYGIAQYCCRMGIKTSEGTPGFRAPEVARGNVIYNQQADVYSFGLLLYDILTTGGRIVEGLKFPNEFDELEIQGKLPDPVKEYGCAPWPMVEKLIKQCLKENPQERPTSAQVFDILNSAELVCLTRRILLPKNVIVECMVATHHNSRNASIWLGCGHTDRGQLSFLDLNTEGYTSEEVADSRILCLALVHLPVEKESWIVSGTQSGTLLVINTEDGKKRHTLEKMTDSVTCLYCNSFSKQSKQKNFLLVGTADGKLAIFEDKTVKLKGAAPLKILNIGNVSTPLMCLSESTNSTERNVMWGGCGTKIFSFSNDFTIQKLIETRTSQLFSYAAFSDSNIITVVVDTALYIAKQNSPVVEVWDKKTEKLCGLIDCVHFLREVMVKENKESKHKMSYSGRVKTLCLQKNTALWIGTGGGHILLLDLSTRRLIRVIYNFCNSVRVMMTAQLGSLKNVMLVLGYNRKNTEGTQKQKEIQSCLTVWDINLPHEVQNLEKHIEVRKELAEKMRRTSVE
LRRK2 Roc domain (LexA-BD bait): residues 1328-1511 of Q5S007
LRRK2 COR domain (LexA-BD bait): residues 1546-1740 of Q5S007
UniProt P04350: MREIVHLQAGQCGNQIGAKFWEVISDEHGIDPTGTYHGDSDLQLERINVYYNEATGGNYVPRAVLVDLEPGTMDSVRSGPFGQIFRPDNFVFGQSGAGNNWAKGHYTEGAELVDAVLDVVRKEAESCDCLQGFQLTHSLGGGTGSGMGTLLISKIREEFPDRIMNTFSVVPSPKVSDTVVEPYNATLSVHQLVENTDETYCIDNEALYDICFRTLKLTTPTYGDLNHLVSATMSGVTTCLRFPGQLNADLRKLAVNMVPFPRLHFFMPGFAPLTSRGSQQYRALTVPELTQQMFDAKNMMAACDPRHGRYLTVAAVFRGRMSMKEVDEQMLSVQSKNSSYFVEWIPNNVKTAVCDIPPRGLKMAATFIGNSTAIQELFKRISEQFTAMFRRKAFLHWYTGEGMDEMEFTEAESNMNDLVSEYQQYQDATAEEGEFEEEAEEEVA
UniProt P07437: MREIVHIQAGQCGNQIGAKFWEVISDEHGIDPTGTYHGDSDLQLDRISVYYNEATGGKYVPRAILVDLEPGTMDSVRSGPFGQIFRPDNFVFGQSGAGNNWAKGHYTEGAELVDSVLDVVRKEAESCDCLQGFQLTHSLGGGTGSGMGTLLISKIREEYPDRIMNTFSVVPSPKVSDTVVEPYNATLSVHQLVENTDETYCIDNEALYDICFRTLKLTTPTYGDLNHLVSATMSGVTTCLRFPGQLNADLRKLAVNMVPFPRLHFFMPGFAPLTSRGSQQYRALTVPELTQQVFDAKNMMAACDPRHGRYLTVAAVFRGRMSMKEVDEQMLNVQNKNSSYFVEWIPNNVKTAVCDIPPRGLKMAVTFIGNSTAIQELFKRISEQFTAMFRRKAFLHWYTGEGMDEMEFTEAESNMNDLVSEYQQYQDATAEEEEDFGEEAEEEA

Row | Substance | binding [1] | binding [2] | binding [3] | binding [4]
1 | TUBB4 C terminus (Phe-317 to Ala-444), GAL4-AD prey (from UniProt P04350 317-444) (domain or fragment) | no binding | binds |  | 
2 | TUBB C terminus (Phe-317 to the stop codon), GAL4-AD prey (from UniProt P07437 317-444) (domain or fragment) | no binding | binds |  | 
3 | full-length myc-tagged LRRK2 (wild type) (from UniProt Q5S007 1-2527) |  |  | binds | binds
